Results on 67 compounds are retold here after the supplement of paper PMC8104966.

Each structure is given as a SMILES string. This is one part of the list. Single values are uncertain here, since repeats match poorly.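 Fusion between ACE2-bearing and full-length-spike-bearing U2OS cells was measured by imaging as the percentage of nuclei with both cell types' fluorescent markers. An inhibitory hit is a non-toxic compound whose fusion z-score is below -3, more than three standard deviations beneath the plate's DMSO wells.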

The test relates to U2OS ACE2 x SARS-CoV-2 spike co-culture. Description: cell-cell fusion (fraction fused) z-score vs plate DMSO control; higher = more fusion. Particulars: 30 µM; 5 h; toxicity class: non-toxic, passed QC.
Consider `Cl.O=C(O)CCC1NCC2CC1CN1CCCCC21` (configuration not stated), for which the “cell-cell fusion (z-score)” value was inactive: 3.13. With `CCC(C)C(=O)O[C@@H]1C[C@@]2(C)[C@H](c3ccoc3)OC(=O)CC23OC2(C)O[C@]14[C@]1(C)[C@@H](CC(=O)OC)C5(C)CC1(O)[C@](O)(C5OC(=O)C1(C)OC1C)[C@@H](OC(C)=O)[C@]34O2` (some centres not stated), the “cell-cell fusion (z-score)” value is inactive: 0.0464. The result for `NCCCC[C@H](N)C(=O)O` [lysine] reads inactive: 1.22; that for `Cc1scc2c1N(C(=O)CN1CCN(C)CC1)c1ccccc1NC2=O.Cl`, inactive: -0.916; that for `CCC(=O)N1CCN(C(=O)c2ccccc2)CC1`, inactive: 1.93. The same measure for `Cc1ccc(C(=O)Nc2cccc(C(F)(F)F)c2)cc1Nc1nc(-c2cccnc2)nc2c1cnn2C`: inactive: 0.771; for `CC1COc2c(N3CCN(C)CC3)c(F)cc3c(=O)c(C(=O)O)cn1c23` (configuration not stated) [Ofloxacin]: inactive: 2.87; for `CCC(C(=O)[O-])c1ccccc1.[Na+]` (configuration not stated): inactive: 4.59. The result for `Nc1nc(=O)c2c([nH]1)NCC(CNc1ccc(C(=O)N[C@@H](CCC(=O)[O-])C(=O)[O-])cc1)N2C=O.[Ca+2]` (some centres not stated) [Calcium folinate] reads inactive: 3.69; that for `CCCCCCCCCC(=O)NC(CN1CCOCC1)[C@H](O)c1ccccc1.Cl` (mixture of isomers), inactive: 0.405. With `O=c1[nH]cc(F)c(=O)[nH]1` [Fluorouracil], the “cell-cell fusion (z-score)” value is inactive: 2.25. The result for `CCNC(=O)Nc1ccc(-c2nc3c(c(N4CCOC[C@@H]4C)n2)CCN(C2COC2)C3)cc1` reads inactive: 0.916; that for `CN1C2CCCC1CC(NC(=O)c1nn(C)c3ccccc13)C2.Cl` (configuration not stated) [Granisetron hydrochloride], inactive: 1.04. `COC(=O)C[C@H]1C(C)(C)[C@@H](O)[C@@H]2CC3=C4C=C(OC)O[C@@H](c5ccoc5)[C@]4(C)CCC3[C@@]1(C)C2=O` (stereo partly drawn) [3-DEOXO-3beta-HYDROXYMEXICANOLIDE 16-ENOL ETHER]: the “cell-cell fusion (z-score)” value is inactive: 2.32. Turning to `[Na+].CO[C@@H]1[C@@H](OC(N)=O)[C@@H](O)[C@H](Oc2ccc3c([O-])c(NC(=O)c4ccc(O)c(C\C=C(\C)C)c4)c(=O)oc3c2C)OC1(C)C` [Novobiocin Sodium], the “cell-cell fusion (z-score)” value was inactive: 3.48. On to `Nc1ncnc2c1nc(Sc1ccc(Cl)cc1)n2C1OC2CO[P@@](=O)([O-])O[C@@H]2[C@@H]1O.[Na+]` (some centres not stated) [8-(4-Chlorophenylthio)-cAMP sodium], for which the “cell-cell fusion (z-score)” value is inactive: 1.87. The same measure for `COC(=O)[C@H]1[C@H]2C[C@H]3c4[nH]c5ccccc5c4CCN3C[C@H]2CC[C@@H]1O.Cl`: inactive: 3.74; for `CC(C)(S)C(N)C(=O)O` (racemic) [DL-Penicillamine]: inactive: 1.82. The result for `CCCCCCCCNC(C)C(O)c1ccc(SC(C)C)cc1` (configuration not stated) reads inactive: 3.1. The same measure for `CC(=O)c1ccc(S(=O)(=O)NC(=O)NC2CCCCC2)cc1` [Acetohexamide]: inactive: 3.4.

With `CC(=O)O[C@H]1C[C@@H](OC(C)=O)C(C)(C)C2CC(=O)[C@]3(C)C(CC[C@@]4(C)[C@H](c5ccoc5)OC(=O)[C@H]5O[C@]543)[C@]21C` (some centres not stated), the “cell-cell fusion (z-score)” value is inactive: 2.88. The result for `COc1cc(N2CCC(N3CCN(C)CC3)CC2)ccc1Nc1ncc(Cl)c(Nc2ccccc2S(=O)(=O)C(C)C)n1` reads inactive: 1.35; that for `COc1cc(NC(C)CCCN)c2ncccc2c1.O=P(O)(O)O.O=P(O)(O)O` (configuration not stated), active: -4.49; that for `C[C@]12CCC3C(CC[C@H]4C[C@H](O)CC[C@]34C)C1CC[C@@H]2C(=O)CO` (stereo partly drawn) [3-alpha,21-Dihydroxy-5-alpha-pregnan-20-one], inactive: 2.75.

Regarding `CC1(C)O[C@@H]2CC3C4C[C@H](F)C5=CC(=O)C=C[C@]5(C)[C@@]4(F)[C@@H](O)C[C@]3(C)[C@]2(C(=O)CO)O1` (some centres not stated), the “cell-cell fusion (z-score)” value was inactive: 0.391. The result for `CC(N)c1cccc(Cl)c1Cl.Cl` (racemic) [(±)-2,3-Dichloro-alpha-methylbenzylamine hydrochloride] reads inactive: 3.35. Turning to `Cc1ccc(-c2cc(C(F)(F)F)nn2-c2ccc(S(N)(=O)=O)cc2)cc1` [Celecoxib], the “cell-cell fusion (z-score)” value is inactive: 0.487. The same measure for `CC1=C(/C=C/C(C)=C/C=C/C(C)=C/C=C/C=C(C)/C=C/C=C(C)/C=C/C2=C(C)C(=O)C(O)CC2(C)C)C(C)(C)CC(O)C1=O` (configuration not stated): inactive: 2.59; for `CN(C)Cc1c[nH]c2ccccc12`: inactive: 2.04.

For the compound `COc1cccc2c1CCCC2CCCN1CCN(C2CCCCC2)CC1.Cl.Cl` (configuration not stated) [PB 28 dihydrochloride], the “cell-cell fusion (z-score)” value was inactive: 0.633. The result for `Nc1ncn([C@H]2C[C@H](O)[C@@H](CO)O2)c(=O)n1` [Decitabine] reads inactive: 1.8; that for `Nc1ccc(O)c(C(=O)O)c1` [Mesalamine], inactive: 1.38; that for `Nc1nc(=O)[nH]cc1F`, inactive: 1.39. Consider `CC(C)(C(=O)c1cccnc1)c1cccnc1` [Metyrapone], for which the “cell-cell fusion (z-score)” value was inactive: 1.65. For the compound `CN1CC(=O)NC1=N`, the “cell-cell fusion (z-score)” value was inactive: 0.115.

For `C[C@]1(Cn2ccnn2)C(C(=O)O)N2C(=O)CC2S1(=O)=O` (some centres not stated), the “cell-cell fusion (z-score)” value is inactive: 1.58. On to `Nc1nc(=O)c(Br)c(-c2ccccc2)[nH]1` [Bropirimine], for which the “cell-cell fusion (z-score)” value was active: -6.01. As to `Cl.Cl.c1ccc(C(NCCNC(c2ccccc2)c2ccccc2)c2ccccc2)cc1`, the “cell-cell fusion (z-score)” value is inactive: 2.97. The same measure for `C/C=N/N(C)C=O`: inactive: 1.86. Regarding `Cl.Nc1c(Br)cc(Br)cc1CNC1CCC(O)CC1` (configuration not stated), the “cell-cell fusion (z-score)” value was inactive: 1.45. The same measure for `COc1c(C)c2c(c(O)c1C/C=C(\C)CCC(=O)O)C(=O)OC2`: inactive: 4.98; for `C[C@]12CCC(=O)C=C1C=CC1C2CC[C@@]2(C)C1CC[C@@]2(O)CCC(=O)[O-].[K+]` (some centres not stated): inactive: 3.61; for `CN1C(C(=O)Nc2ccccn2)=C(O)c2ccccc2S1(=O)=O` [Piroxicam]: inactive: 4.48. On to `CC1=C(/C=C/C(C)=C/C=C/C(C)=C/C=C/C=C(C)/C=C/C=C(C)/C=C/C2=C(C)C(=O)CCC2(C)C)C(C)(C)CCC1=O` [CANTHAXANTHIN (euglenanone)], for which the “cell-cell fusion (z-score)” value is inactive: 2.58. For the compound `COc1cc(/C=C/C(N)=O)cc(OC)c1OC`, the “cell-cell fusion (z-score)” value was inactive: -0.354. The same measure for `CC(C)C[C@@H](C(=O)N[C@H](C(=O)OC1CCCC1)c1ccccc1)[C@H](O)C(=O)NO` [Tosedostat (CHR2797)]: inactive: 0.485; for `O=C(O)c1nn(Cc2ccc(Cl)cc2Cl)c2ccccc12` [Lonidamine]: inactive: 1.83; for `CN(C)CC[C@@H](c1ccc(Cl)cc1)c1ccccn1.O=C(O)/C=C\C(=O)O`: inactive: 0.834.

`NC(=O)CC[C@H](N)C(=O)O` [L-Glutamine]: the “cell-cell fusion (z-score)” value was inactive: 0.534.

For `CS(=O)(=O)c1ccc(C(O)[C@H](CF)NC(=O)C(Cl)Cl)cc1` (some centres not stated), the “cell-cell fusion (z-score)” value is inactive: -0.201.

With `COc1cccc(O)c1O`, the “cell-cell fusion (z-score)” value is inactive: 1.25. Consider `COCCCOc1cc(C[C@@H](C[C@H](N)[C@@H](O)C[C@H](C(=O)NCC(C)(C)C(N)=O)C(C)C)C(C)C)ccc1OC.COCCCOc1cc(C[C@@H](C[C@H](N)[C@@H](O)C[C@H](C(=O)NCC(C)(C)C(N)=O)C(C)C)C(C)C)ccc1OC.O=C(O)/C=C/C(=O)O` [Aliskiren hemifumarate], for which the “cell-cell fusion (z-score)” value was inactive: 3.15.

Regarding `COc1cc2c(cc1-c1cc3cc4ccoc4cc3oc1=O)OCO2`, the “cell-cell fusion (z-score)” value is inactive: 3.05. With `Cc1cc2c(s1)Nc1ccccc1N=C2N1CCN(C)CC1`, the “cell-cell fusion (z-score)” value is inactive: -1.05.

In the case of `COc1c(CC(=O)c2cc3c(cc2O)OC(C)(C)C(O)C3)ccc2c1C=CC(C)(C)O2` (configuration not stated), the “cell-cell fusion (z-score)” value was inactive: 1.93. The same measure for `CC[C@H]1CN2CCc3cc(OC)c(OC)cc3C2C[C@@H]1CC1NCCc2cc(OC)c(OC)cc21.Cl.Cl` (some centres not stated): inactive: 1.38. Turning to `CCCCCCCCCCCCCCCC(=O)NCCO`, the “cell-cell fusion (z-score)” value was inactive: 1.99. The result for `CCCCC(=O)N(Cc1ccc(-c2ccccc2-c2nn[n-]n2)cc1)[C@H](C(=O)[O-])C(C)C.CCCCC(=O)N(Cc1ccc(-c2ccccc2-c2nn[n-]n2)cc1)[C@H](C(=O)[O-])C(C)C.CCOC(=O)[C@H](C)C[C@@H](Cc1ccc(-c2ccccc2)cc1)NC(=O)CCC(=O)[O-].CCOC(=O)[C@H](C)C[C@@H](Cc1ccc(-c2ccccc2)cc1)NC(=O)CCC(=O)[O-].O.O.O.O.O.[NaH+].[NaH+].[NaH+].[NaH+].[NaH+].[NaH+]` reads inactive: 3.15. In the case of `COc1ccc2c(c1)c(CC(=O)O)c(C)n2Cc1ccc(Cl)cc1` [1-(4-Chlorobenzyl)-5-methoxy-2-methylindole-3-acetic acid], the “cell-cell fusion (z-score)” value was inactive: 4.13. The result for `O=C(O)CCC(=O)Nc1ccc(S(=O)(=O)Nc2nccs2)cc1` reads inactive: 1.91; that for `CC(=O)Nc1ccccc1`, inactive: 1.29. The result for `CCOC(=O)OC(C)OC(=O)C1N2C(=O)C(NC(=O)[C@H](N)c3ccccc3)C2SC1(C)C.Cl` (some centres not stated) reads inactive: 2.89. The result for `COc1cc2c(cc1OC)C(C)NCC2` (configuration not stated) reads inactive: 1.64.

`CO/N=C(\C(=O)N[C@@H]1C(=O)N2C(C(=O)O)=CCS[C@H]12)c1csc(N)n1` [Ceftizoxime]: the “cell-cell fusion (z-score)” value was inactive: 2.12.

As to `CC(C)(C)NCC(O)COc1cccc2c1CCC(=O)N2.Cl` (configuration not stated) [Carteolol hydrochloride], the “cell-cell fusion (z-score)” value was inactive: 1.2. For the compound `CN1C[C@H](C(=O)N[C@]2(C)O[C@@]3(O)[C@@H]4CCCN4C(=O)[C@H](Cc4ccccc4)N3C2=O)C[C@@H]2c3cccc4[nH]cc(c34)C[C@H]21.CS(=O)(=O)O`, the “cell-cell fusion (z-score)” value was inactive: -1.95. For `CN1C[C@H](C(=O)N[C@]2(C)O[C@@]3(O)[C@@H]4CCCN4C(=O)[C@H](Cc4ccccc4)N3C2=O)C[C@@H]2c3cccc4[nH]cc(c34)C[C@H]21.CS(=O)(=O)O` [Dihydroergotamine methanesulfonate], the “cell-cell fusion (z-score)” value was active: -4.69.
